## Results of single-concentration screens

The chains behind the UniProt entries cited, without tags or fusion partners. Residues count along the entry.
UniProt Q4DA54, 1-478: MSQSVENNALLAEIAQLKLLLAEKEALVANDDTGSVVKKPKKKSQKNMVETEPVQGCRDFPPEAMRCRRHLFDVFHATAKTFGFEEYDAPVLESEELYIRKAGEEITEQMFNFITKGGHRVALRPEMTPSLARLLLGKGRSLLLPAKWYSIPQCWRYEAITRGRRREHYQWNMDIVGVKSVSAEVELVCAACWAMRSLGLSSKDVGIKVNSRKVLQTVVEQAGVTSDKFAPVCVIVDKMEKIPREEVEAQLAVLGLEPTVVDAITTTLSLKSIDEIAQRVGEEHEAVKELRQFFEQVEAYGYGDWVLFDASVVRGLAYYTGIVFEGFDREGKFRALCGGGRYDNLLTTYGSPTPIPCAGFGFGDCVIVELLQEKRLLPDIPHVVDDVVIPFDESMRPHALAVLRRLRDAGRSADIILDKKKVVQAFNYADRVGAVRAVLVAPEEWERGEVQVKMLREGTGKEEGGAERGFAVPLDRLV
UniProt P9WNZ1, whole entry: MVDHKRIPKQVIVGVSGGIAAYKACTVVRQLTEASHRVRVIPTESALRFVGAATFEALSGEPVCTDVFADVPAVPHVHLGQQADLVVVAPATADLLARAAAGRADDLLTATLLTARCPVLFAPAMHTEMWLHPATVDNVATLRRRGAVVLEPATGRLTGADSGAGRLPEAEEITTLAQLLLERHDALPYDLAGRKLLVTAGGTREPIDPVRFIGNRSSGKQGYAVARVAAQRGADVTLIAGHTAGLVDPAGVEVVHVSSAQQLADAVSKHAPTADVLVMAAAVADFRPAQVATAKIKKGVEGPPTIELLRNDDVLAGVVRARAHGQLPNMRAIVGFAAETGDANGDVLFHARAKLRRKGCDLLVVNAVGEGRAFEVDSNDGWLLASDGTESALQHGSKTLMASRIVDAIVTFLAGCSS

Results are given as percent effect. The record does not define 0% and 100%; most values in the screen are far below 50% and negative numbers occur (in some assays of this library far below -100). Compounds were drawn at random from those tested, without regard to their results. Two or more numbers in one place are separate tests of the same structure; such repeats can differ widely.

TcHisRS: 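Enzyme assay of histidyl-tRNA synthetase; the read-out is not stated. Target: Histidine-tRNA ligase, Trypanosoma cruzi CL Brener (UniProt Q4DA54). Tested at 30 µM. Direction is inferred from retests: higher values go with stronger inhibition. Of about 69,000 compounds tested this way, about 31 (0.045%) reached 50% or more in at least one test.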
CoaBC: 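Enzyme assay of CoaBC with a phosphate dye (Biomol Green) read at 650 nm. Target: Coenzyme A biosynthesis protein CoaBC, Mycobacterium tuberculosis (UniProt P9WNZ1). Tested at 30 µM. Higher reads as stronger inhibition, judged from the few compounds that gave an IC50. Most strong results did not repeat in a second test. Of about 67,000 compounds tested this way, about 40 (0.06%) reached 50% or more in at least one test.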

compound: COc1ccc(C(C)NS(=O)(=O)c2ccc3c(c2)CCC(=O)N3)cc1F (stereo unspecified)
TcHisRS: 0.6024
CoaBC: 0.122

compound: COc1cc(CNCC(O)c2ccc(F)c(F)c2)cc2c1OCO2 (stereo unspecified)
TcHisRS: 5.747
CoaBC: -13.15

compound: Cc1ccc(Oc2ncccc2CNC2Cc3ccccc3C2)cn1
TcHisRS: -2.326
CoaBC: 7.725

compound: Cc1noc(C(C)Nc2ccc3oc(=O)[nH]c3c2)n1 (stereo unspecified)
TcHisRS: 2.128
CoaBC: -2.811

compound: Cc1cc(C)c(CNC(=O)NCc2nnc3n2CCCCC3)c(=O)[nH]1
TcHisRS: 7.937
CoaBC: 7.231

compound: Cc1cnc(CN(C)C2CCN(Cc3nc4ccccc4s3)C2)o1 (stereo unspecified)
TcHisRS: 7.345
CoaBC: 1.305

compound: COCc1nc(CNC2CCN(C(C)C)CC2)no1
TcHisRS: 0
CoaBC: 6.746

compound: Cc1cccc(-n2cc(CN3CCN(C)[C@@H]4CS(=O)(=O)C[C@@H]43)cn2)c1
TcHisRS: 7.216
CoaBC: 11.21

compound: N#Cc1ccccc1C(=O)N1C[C@H]2CC[C@@H]1CN(Cc1ccccc1)C2
TcHisRS: 4.712
CoaBC: 7.613

compound: COc1cc(CCC(=O)N2CCC(c3cc4nccnc4[nH]3)CC2)on1
TcHisRS: 6.061
CoaBC: -1.233

compound: CCc1ncnc2c1CCN(S(=O)(=O)c1ccccc1)CC2
TcHisRS: 9.548
CoaBC: 0.3713

compound: COc1ccc2nc(CCNC(=O)c3cc(CC(C)C)no3)[nH]c2c1
TcHisRS: 5.202
CoaBC: 2.73

compound: Cc1cc(CN2CC[C@]3(C[C@@H](OCC(=O)N(C)C)CO3)C2)no1
TcHisRS: 11.34
CoaBC: 0

compound: COCC(=O)N1CCN(C(=O)NC(C)C)CC2(CC(=O)N(C)C2)C1 (stereo unspecified)
TcHisRS: 0
CoaBC: 3.759

compound: CC(=O)N1C[C@@H](F)[C@@H](OCc2nc3ccc(C#N)cc3[nH]2)C1
TcHisRS: 4.95
CoaBC: -1.58

compound: Cn1cc(NC(=O)CNC(=O)N2CCN(c3ccc(F)cc3)CC2)cn1
TcHisRS: 5.155
CoaBC: -6.132

compound: CCCN1CCC(Cc2noc(-c3ncccc3C)n2)CC1
TcHisRS: 11.11
CoaBC: 5.387

compound: COc1cc(F)c(S(=O)(=O)Nc2cnc(O)cc2C)cc1OC
TcHisRS: 4.878
CoaBC: 5.696

compound: O=C(c1ccc(O)nc1)N1CCC(Nc2cccnn2)CC1
TcHisRS: 3.79
CoaBC: 3.916

compound: CN1C(=O)CC(c2ccccc2)C12CCN(CC1CC1)CC2 (stereo unspecified)
TcHisRS: 7.767
CoaBC: 3.218

compound: CCN1CC2(CC1=O)CN(Cc1cnn(C)c1)CCN(C(C)=O)C2 (stereo unspecified)
TcHisRS: 3.743
CoaBC: 3.52

compound: NCc1ccc(Oc2ccc(F)c(F)c2)cc1C(F)(F)F
TcHisRS: 7.522
CoaBC: -3.505

compound: CC(=O)N1CCCCC1c1nc(N)ncc1-c1ccccc1 (stereo unspecified)
TcHisRS: 3.825
CoaBC: 10.36

compound: Cc1nc(CN2C[C@@H]3CN(c4ncccn4)C[C@@H]3C2=O)cs1
TcHisRS: 4.813
CoaBC: 3.75

compound: CC(C)(C)CN1CC(COc2ccccc2)Oc2ccncc2S1(=O)=O (stereo unspecified)
TcHisRS: 10.4
CoaBC: 4.54

compound: O=C(CCc1cn[nH]c1)N1CCC(C2CCN(c3ncccn3)CC2)C1 (stereo unspecified)
TcHisRS: 2.632

compound: Cc1ccc(-c2ccnc(NC(C)c3n[nH]c(C)n3)n2)c(C)n1 (stereo unspecified)
TcHisRS: 3.409
CoaBC: 4.069

compound: Cc1cccc(N2CCOCC3(C2)CN(c2ccoc2)C(=O)CO3)n1 (stereo unspecified)
TcHisRS: 18.44
CoaBC: 4.242

compound: CN1C[C@@H](C(=O)NC2CC2)[C@@]2(COc3ccc(F)cc3C2=O)C1
TcHisRS: 2.273
CoaBC: -1.726

compound: O=C(CNCCn1cccn1)NCC1(c2ccccc2)CCOCC1
TcHisRS: 6.706
CoaBC: 2.089

compound: c1ccc2sc(NCC3(N4CCOCC4)CCSC3)nc2c1 (stereo unspecified)
TcHisRS: 2.463
CoaBC: 3.797

compound: Cc1cc(N2CCCN(CCc3ccccc3)CC2)ccn1
TcHisRS: 1.093
CoaBC: -26.16

compound: CCCNC(=O)NC(=O)CNc1c(F)cccc1N1CCCC1
TcHisRS: 11.06
CoaBC: 1.145

compound: COc1ccc(-n2ccnc2-c2cnc(N(C)C)nc2)cc1OC
TcHisRS: 1.657
CoaBC: 4.577

compound: NC(=O)C1CCN(S(=O)(=O)c2cnn(-c3ccccc3)c2)C1 (stereo unspecified)
TcHisRS: 13.37
CoaBC: 20.87 and 9.524

compound: Cc1ccccc1-c1cc(NC(=O)Cn2ccccc2=O)n(C)n1
TcHisRS: 5.882
CoaBC: 3.629

Repeated from the top, 2 entries:

| compound | TcHisRS | CoaBC |
|---|---|---|
| `COc1ccc(C(C)NS(=O)(=O)c2ccc3c(c2)CCC(=O)N3)cc1F` (stereo unspecified) | 0.6024 | 0.122 |
| `COc1cc(CNCC(O)c2ccc(F)c(F)c2)cc2c1OCO2` (stereo unspecified) | 5.747 | -13.15 |

Source: ChEMBL document CHEMBL3988442, “University of Dundee, Small-Polar-MMV Screening Library” (2021).